These are yes or no findings as the source states them, for the method shown. Binding seen in cells or lysates may run through a third protein. Some results given as binding are weak or reduced against the parent protein; the word gives no strength.
How the values were obtained:
[1] = target: T1, thioredoxin-interacting protein (TXNIP), mouse heart (mouse (endogenous in heart tissue)) (UniProt Q8BG60); test: co-IP; endogenous co-immunoprecipitation from mouse heart tissue lysate with TXNIP antibody, immunoblot for NLRP3, TXNIP and thioredoxin; mice on ND or HFD for 24 wks, with rAAV9-cTnT-null or rAAV9-cTnT-TXNIP (Figure S5I), or with NS or MitoTEMPO (Figure 7I)
T1 sequence: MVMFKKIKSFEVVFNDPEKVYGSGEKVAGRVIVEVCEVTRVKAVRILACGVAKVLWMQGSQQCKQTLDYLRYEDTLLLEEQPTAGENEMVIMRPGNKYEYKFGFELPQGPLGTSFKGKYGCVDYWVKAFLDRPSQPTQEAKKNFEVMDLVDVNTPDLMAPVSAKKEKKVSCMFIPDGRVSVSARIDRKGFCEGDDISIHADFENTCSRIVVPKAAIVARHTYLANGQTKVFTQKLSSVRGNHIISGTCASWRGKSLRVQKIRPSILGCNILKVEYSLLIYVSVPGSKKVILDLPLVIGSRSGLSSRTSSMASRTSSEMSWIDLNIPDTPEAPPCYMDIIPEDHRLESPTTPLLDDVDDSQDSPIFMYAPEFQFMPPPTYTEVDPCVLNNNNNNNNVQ

The chains behind the UniProt entries cited, without tags or fusion partners.
UniProt Q8R4B8: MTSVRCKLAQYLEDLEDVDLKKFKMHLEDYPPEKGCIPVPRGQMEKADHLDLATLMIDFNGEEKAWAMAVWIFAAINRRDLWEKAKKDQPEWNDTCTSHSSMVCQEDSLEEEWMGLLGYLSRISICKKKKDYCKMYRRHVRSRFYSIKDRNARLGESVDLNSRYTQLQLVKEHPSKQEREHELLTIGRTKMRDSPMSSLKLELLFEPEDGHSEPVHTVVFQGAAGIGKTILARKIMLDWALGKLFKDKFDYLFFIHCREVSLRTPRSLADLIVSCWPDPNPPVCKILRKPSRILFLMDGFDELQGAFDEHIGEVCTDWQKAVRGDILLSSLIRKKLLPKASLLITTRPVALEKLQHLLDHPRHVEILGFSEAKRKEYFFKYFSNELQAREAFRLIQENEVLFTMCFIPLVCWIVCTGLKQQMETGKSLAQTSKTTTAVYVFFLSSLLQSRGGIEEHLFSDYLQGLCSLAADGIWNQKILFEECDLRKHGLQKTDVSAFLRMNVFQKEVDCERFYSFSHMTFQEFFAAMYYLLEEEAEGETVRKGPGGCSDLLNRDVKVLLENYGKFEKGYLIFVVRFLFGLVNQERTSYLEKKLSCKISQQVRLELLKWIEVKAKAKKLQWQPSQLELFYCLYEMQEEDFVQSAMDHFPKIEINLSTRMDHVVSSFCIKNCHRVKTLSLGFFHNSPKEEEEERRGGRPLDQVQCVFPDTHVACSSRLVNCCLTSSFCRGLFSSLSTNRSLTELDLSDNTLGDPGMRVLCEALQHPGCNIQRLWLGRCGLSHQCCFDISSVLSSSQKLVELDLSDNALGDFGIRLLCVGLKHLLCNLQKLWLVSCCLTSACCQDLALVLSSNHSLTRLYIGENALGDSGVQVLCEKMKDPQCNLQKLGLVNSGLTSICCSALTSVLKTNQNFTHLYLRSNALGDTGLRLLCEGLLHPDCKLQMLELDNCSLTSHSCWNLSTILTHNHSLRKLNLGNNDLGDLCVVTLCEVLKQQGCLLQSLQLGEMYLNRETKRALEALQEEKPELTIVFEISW
UniProt D4A523: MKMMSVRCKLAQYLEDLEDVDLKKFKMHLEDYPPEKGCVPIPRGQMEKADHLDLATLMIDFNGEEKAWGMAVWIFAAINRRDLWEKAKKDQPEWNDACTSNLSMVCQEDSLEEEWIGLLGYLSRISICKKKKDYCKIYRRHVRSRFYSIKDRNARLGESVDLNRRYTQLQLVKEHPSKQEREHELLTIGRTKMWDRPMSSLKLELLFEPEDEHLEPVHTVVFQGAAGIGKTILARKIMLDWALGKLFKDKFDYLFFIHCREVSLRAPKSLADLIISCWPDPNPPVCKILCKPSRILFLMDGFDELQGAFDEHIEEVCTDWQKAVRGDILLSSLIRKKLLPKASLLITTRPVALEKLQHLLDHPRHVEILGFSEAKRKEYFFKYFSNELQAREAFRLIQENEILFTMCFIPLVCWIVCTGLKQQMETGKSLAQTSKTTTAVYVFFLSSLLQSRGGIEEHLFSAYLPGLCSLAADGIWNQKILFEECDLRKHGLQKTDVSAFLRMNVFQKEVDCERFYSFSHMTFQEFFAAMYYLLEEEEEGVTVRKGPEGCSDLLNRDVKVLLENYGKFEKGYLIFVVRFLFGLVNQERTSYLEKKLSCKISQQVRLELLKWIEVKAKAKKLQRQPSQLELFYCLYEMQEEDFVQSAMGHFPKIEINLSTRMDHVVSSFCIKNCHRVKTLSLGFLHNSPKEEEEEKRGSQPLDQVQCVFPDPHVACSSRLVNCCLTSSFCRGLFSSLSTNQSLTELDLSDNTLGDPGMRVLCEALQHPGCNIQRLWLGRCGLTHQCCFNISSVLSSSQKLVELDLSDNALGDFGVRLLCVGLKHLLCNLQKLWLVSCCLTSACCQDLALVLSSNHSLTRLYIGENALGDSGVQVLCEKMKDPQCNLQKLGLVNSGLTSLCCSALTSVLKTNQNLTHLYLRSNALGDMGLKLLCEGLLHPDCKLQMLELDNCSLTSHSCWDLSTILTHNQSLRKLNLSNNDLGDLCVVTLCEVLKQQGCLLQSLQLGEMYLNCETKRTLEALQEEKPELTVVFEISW

[2] = target: T2, thioredoxin-interacting protein (TXNIP), neonatal rat ventricular myocytes (rat (endogenous in neonatal rat ventricular myocytes)) (UniProt Q5M7W1); test: co-IP; endogenous co-immunoprecipitation from NRVM cell lysates with TXNIP antibody, immunoblot for NLRP3, TXNIP and TRX; cells in BSA or BSA+PA medium for 24 h, with PBS or MitoTEMPO, with siTXNIP or siCTR
T2 sequence: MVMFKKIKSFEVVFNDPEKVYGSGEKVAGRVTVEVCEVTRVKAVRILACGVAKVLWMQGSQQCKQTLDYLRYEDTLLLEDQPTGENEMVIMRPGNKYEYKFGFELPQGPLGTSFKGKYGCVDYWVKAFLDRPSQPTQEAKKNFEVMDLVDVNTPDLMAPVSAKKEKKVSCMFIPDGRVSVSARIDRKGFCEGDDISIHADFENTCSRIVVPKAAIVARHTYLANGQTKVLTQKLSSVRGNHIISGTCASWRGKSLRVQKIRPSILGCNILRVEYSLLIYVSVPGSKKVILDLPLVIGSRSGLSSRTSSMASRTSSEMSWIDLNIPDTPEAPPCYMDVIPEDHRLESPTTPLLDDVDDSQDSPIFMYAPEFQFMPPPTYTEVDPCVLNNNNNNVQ

| binding [1] | binding [2] | Substance |
| --- | --- | --- |
| binds |  | nucleotide-binding oligomerization domain-like receptor 3 (NLRP3), mouse heart (from UniProt Q8R4B8 1-1033) |
|  | binds | nucleotide-binding oligomerization domain-like receptor 3 (NLRP3), neonatal rat ventricular myocytes (from UniProt D4A523 1-1035) |
